## Library screening results

Sequences of proteins named here, by UniProt entry; tags and fusion partners are left off.
UniProt E9BF75, entry or part of it: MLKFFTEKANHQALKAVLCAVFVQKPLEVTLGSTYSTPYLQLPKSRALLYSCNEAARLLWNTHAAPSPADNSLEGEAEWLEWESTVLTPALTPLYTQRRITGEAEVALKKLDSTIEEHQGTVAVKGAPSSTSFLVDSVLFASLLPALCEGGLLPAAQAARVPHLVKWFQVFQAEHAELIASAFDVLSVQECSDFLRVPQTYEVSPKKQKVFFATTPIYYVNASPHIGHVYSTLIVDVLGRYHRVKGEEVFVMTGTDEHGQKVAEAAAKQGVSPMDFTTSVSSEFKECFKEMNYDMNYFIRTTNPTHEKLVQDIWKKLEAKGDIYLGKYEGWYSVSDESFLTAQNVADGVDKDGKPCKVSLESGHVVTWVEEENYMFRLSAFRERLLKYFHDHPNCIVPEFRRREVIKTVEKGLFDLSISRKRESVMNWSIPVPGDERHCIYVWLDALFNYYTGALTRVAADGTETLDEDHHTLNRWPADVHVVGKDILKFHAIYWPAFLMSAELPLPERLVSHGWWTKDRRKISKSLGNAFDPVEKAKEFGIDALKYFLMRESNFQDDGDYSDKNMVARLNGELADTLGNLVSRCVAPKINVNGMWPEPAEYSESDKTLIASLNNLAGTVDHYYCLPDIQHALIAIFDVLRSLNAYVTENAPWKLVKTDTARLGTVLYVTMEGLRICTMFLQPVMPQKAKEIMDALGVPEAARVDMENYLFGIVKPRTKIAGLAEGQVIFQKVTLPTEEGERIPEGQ

Data taken from ChEMBL document CHEMBL3988442, “University of Dundee, Small-Polar-MMV Screening Library” (2021).

Results are percentages, as filed. The controls that fix the scale are not given in the record; negative values are as filed. This is an unselected part of the compounds tested. A dash means the value is not listed here; it may have been measured.

Mtb heat-shock: 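Assay on Mycobacterium tuberculosis, filed only as a heat shock assay from Cornell; the read-out is not stated. The concentration is filed as 10 mM, unlikely as a test dose, so the dose is not known. Higher reads as stronger inhibition (inferred: compounds with an IC50 in retests scored well above the rest). Size under these conditions: about 69,000 compounds, about 930 of them at 50% or above in at least one test.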
LdMetRS: 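Methionyl-tRNA synthetase (putative), Leishmania donovani (UniProt E9BF75). Primary screen of methionyl-tRNA synthetase; the read-out is not stated. The test concentration is not given. The values are filed as inhibition. Size under these conditions: about 68,000 compounds, about 24 of them at 50% or above in at least one test.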
Mtb growth Cornell: 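Whole-cell assay for inhibitors of Mycobacterium tuberculosis growth, labelled Cornell in the record; the read-out is not stated. The concentration is filed as 10 mM, unlikely as a test dose, so the dose is not known. The record gives no direction; compounds strong in two other growth screens of this library score well above the rest, so higher reads as stronger inhibition. About 53,000 compounds were tested under these conditions; 1.7% (about 900) showed 50% or more at least once.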

- O=C(CNc1cc(Br)ccc1Br)NC1CCS(=O)(=O)C1 (stereo not given) : Mtb heat-shock: 17.69%; LdMetRS: 0.7246%; Mtb growth Cornell: -1.72%
- Cc1nn(C)c(N(C)C)c1CNCCCNS(C)(=O)=O : Mtb heat-shock: 5.317%; LdMetRS: 16.71%
- CC(C)(C#N)C(=O)Nc1nccn1Cc1ccc(Br)cc1 : Mtb heat-shock: 102.4%; LdMetRS: 4.087%; Mtb growth Cornell: 15.16%
- Cc1c(Cc2ccccc2)c(O)nc2nc(N3CCOCC3)nn12 : Mtb heat-shock: 5.747%; LdMetRS: 5.744%; Mtb growth Cornell: 4.487%
- O=C1NCCN(CC2CCCCC2)C1CC(=O)N1CCc2n[nH]cc2C1 (stereo not given) : Mtb heat-shock: -169.3%; LdMetRS: 17.82%
- Cc1ccc(C)c(NC(=O)C(C)N2CCCN(c3nccs3)CC2)c1 (stereo not given) : Mtb heat-shock: 26%; LdMetRS: 5.222%; Mtb growth Cornell: -17.64%
- CC(NC(=O)NCCCn1cncn1)c1ccc(F)cc1 (stereo not given) : Mtb heat-shock: 21.97%; LdMetRS: 16.83%
- c1ccc(-n2ncc(CNC3CCc4ncnn4C3)n2)cc1 (stereo not given) : Mtb heat-shock: 24.86%; LdMetRS: 12.88%; Mtb growth Cornell: 7.315%
- CNC(=O)COc1ccc(CNCc2ccc(F)cc2F)cc1 : Mtb heat-shock: 18.35%; LdMetRS: 8.85%; Mtb growth Cornell: -2.373%
- c1ccc2c(c1)CCN(c1nc(N3CCOCC3)c3nn[nH]c3n1)C2 : Mtb heat-shock: -2.069%; LdMetRS: 7.914%; Mtb growth Cornell: 10.37%
- Cc1n[nH]c(C)c1NC(=O)CN1CCCC(CNC(=O)C(C)(C)C)C1 (stereo not given) : Mtb heat-shock: 3.135%; LdMetRS: 13.27%
- CC(c1ccco1)N(C(=O)c1cccc(C#N)c1)C1CC1 (stereo not given) : Mtb heat-shock: -5.201%; LdMetRS: 9.192%; Mtb growth Cornell: 14.98%
- CC(C)C(=O)N1CC[C@@H]2[C@H](CC1)N(Cc1cccnc1)CCS2(=O)=O : LdMetRS: 11.68%
- Nc1cc(CCC2CN(Cc3cccc(C(=O)O)c3)CCO2)ccn1 (stereo not given) : Mtb heat-shock: -11.55%; LdMetRS: 12.94%
- [H][C@@]12CN(S(=O)(=O)c3ccccc3)C[C@]1([H])OCC(=O)N2Cc1ccccn1 : Mtb heat-shock: -38.51%
- [H][C@]12C[C@@H](Cn3cncn3)N(c3nccs3)[C@@]1([H])CCN(C)C2 : Mtb heat-shock: -9.305%; Mtb growth Cornell: 9.507%
- CSCc1cccc(S(=O)(=O)NCCCO)c1 : Mtb heat-shock: 10.78%; LdMetRS: 16.54%; Mtb growth Cornell: -58.96%
- CS(=O)(=O)Cc1nc(CNc2c(F)cc(F)cc2F)cs1 : Mtb heat-shock: -6.672%; LdMetRS: 11.56%; Mtb growth Cornell: 22.22%
- CN(Cc1ccco1)[C@@H]1CN(Cc2ccco2)[C@@H]2CCCO[C@H]12 : LdMetRS: 17.07%
- OCCn1nccc1C1CCN(CCOc2cccc(F)c2)CC1 : Mtb heat-shock: -9.716%; LdMetRS: 24.57%; Mtb growth Cornell: 4.502%
- [H][C@@]12COC[C@]1(COCC(=O)N(C)C)CN(Cc1cc(C)on1)C2 : Mtb heat-shock: -33.12%
- Cc1cc(C[C@@H]2COC[C@H]2NCc2ccccc2C(F)(F)F)on1 : LdMetRS: 12.67%
- CC(C)Nc1nc2c(cc1C(=O)NCC1CC1)CCN(CC1CC1)CC2.O=C(O)C(F)(F)F.O=C(O)C(F)(F)F : Mtb heat-shock: -2.123%; Mtb growth Cornell: 26.53%
- OC1(c2ccc(F)cc2)CCN(Cc2ccccc2N2CCCC2)CC1 : LdMetRS: 4.787%
- Cc1ccc(N(C)C2CCCN(C(=O)Nc3ccc(F)cc3F)C2)cc1 (stereo not given) : Mtb heat-shock: -15.12%; LdMetRS: 11.76%; Mtb growth Cornell: 17.1%
- O=C(CSc1nnc[nH]1)NCc1sccc1Br : Mtb heat-shock: 10.15%; LdMetRS: 2.419%; Mtb growth Cornell: -11.43%

For reference, 2 entries once more:

structure	Mtb heat-shock	LdMetRS	Mtb growth Cornell
[H][C@@]12CN(S(=O)(=O)c3ccccc3)C[C@]1([H])OCC(=O)N2Cc1ccccn1	-38.51	-	-
CN(Cc1ccco1)[C@@H]1CN(Cc2ccco2)[C@@H]2CCCO[C@H]12	-	17.07	-